Data taken from PMC7053240.
Results are given in words; binding and its absence hold for the method and conditions named. Binding seen in cells or lysates may run through a third protein. Some results given as binding are weak or reduced against the parent protein; the word gives no strength.

Amino acid sequences for entries named in this document (tags omitted).
UniProt P35249: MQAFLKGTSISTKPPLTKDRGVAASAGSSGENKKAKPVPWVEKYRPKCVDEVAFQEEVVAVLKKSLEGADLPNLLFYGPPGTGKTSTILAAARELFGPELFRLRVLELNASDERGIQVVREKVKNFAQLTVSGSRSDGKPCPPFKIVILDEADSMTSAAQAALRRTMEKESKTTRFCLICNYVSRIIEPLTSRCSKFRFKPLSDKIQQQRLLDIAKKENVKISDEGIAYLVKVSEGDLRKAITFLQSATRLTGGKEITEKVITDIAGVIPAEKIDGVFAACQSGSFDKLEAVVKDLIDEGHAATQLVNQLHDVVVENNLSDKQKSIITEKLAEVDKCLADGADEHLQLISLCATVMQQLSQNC
UniProt P40938: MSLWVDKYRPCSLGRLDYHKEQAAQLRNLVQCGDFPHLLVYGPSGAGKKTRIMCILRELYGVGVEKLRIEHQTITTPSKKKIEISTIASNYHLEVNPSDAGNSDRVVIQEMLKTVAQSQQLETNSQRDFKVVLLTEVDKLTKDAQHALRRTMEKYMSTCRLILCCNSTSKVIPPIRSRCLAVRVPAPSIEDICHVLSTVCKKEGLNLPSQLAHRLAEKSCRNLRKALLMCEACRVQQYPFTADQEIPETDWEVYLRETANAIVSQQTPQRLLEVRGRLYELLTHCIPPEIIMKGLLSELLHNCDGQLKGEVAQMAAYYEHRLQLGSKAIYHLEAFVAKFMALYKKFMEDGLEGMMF

T1: Rad17 (human (endogenous in ESCC cells)) (UniProt O75943)
T1 sequence: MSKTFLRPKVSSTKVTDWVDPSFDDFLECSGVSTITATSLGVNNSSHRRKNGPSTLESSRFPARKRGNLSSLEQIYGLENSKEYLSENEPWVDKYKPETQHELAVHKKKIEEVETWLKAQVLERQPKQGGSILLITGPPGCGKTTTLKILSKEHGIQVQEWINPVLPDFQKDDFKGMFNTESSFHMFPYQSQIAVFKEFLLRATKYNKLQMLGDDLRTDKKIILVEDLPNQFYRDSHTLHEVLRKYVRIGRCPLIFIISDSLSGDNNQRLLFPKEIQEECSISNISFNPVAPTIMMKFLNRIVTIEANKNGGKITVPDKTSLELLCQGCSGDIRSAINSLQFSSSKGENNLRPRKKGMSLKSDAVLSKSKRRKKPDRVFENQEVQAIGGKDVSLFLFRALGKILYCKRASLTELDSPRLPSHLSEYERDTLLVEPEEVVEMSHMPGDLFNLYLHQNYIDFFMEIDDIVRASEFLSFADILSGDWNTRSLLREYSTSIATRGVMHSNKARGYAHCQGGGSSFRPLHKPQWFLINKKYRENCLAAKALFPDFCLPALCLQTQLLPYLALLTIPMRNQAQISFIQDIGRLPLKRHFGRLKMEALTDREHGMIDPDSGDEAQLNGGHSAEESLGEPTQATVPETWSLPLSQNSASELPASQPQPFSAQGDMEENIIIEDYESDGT

B1: Rad17 (protein, UniProt O75943 1-681)
chain: MSKTFLRPKVSSTKVTDWVDPSFDDFLECSGVSTITATSLGVNNSSHRRKNGPSTLESSRFPARKRGNLSSLEQIYGLENSKEYLSENEPWVDKYKPETQHELAVHKKKIEEVETWLKAQVLERQPKQGGSILLITGPPGCGKTTTLKILSKEHGIQVQEWINPVLPDFQKDDFKGMFNTESSFHMFPYQSQIAVFKEFLLRATKYNKLQMLGDDLRTDKKIILVEDLPNQFYRDSHTLHEVLRKYVRIGRCPLIFIISDSLSGDNNQRLLFPKEIQEECSISNISFNPVAPTIMMKFLNRIVTIEANKNGGKITVPDKTSLELLCQGCSGDIRSAINSLQFSSSKGENNLRPRKKGMSLKSDAVLSKSKRRKKPDRVFENQEVQAIGGKDVSLFLFRALGKILYCKRASLTELDSPRLPSHLSEYERDTLLVEPEEVVEMSHMPGDLFNLYLHQNYIDFFMEIDDIVRASEFLSFADILSGDWNTRSLLREYSTSIATRGVMHSNKARGYAHCQGGGSSFRPLHKPQWFLINKKYRENCLAAKALFPDFCLPALCLQTQLLPYLALLTIPMRNQAQISFIQDIGRLPLKRHFGRLKMEALTDREHGMIDPDSGDEAQLNGGHSAEESLGEPTQATVPETWSLPLSQNSASELPASQPQPFSAQGDMEENIIIEDYESDGT

How the values were obtained:
[1] = target: T1, Rad17 (human (endogenous in ESCC cells)); experiment: co-IP; Rad17 CoIP from cell lysate (Pierce IP lysis buffer, 2 ug antibody overnight at 4 °C, protein A/G sepharose beads), immunoblot for RFC3/4; cells with or without NELFA mRNA ASO knockdown
[2] = target: RFC4 (human (endogenous in ESCC cells)) (UniProt P35249); experiment: co-IP; RFC3/4 CoIP from cell lysate (Pierce IP lysis buffer, 2 ug antibody overnight at 4 °C, protein A/G sepharose beads), immunoblot; cells with or without NELFA mRNA ASO knockdown
[3] = target: RFC3 (human (endogenous in ESCC cells)) (UniProt P40938); experiment: as above

Row | Molecule | binding [1] | binding [2] | binding [3]
1 | RFC3 (from UniProt P40938 1-356) | binds |  | 
2 | RFC4 (from UniProt P35249 1-363) | binds |  | 
3 | B1 |  | binds | binds
